{"source": "PubChem BioAssay AID504764 (Drosophila RNAi Screening Center, 2011)", "aim": "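Knock-downs that raise or lower a Notch target reporter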 (primary screen)", "cells": "Drosophila Kc167 cells", "reagents": "long dsRNA against Drosophila genes", "duration": "about 5 days (4 days dsRNA, then 24 h after transfection)", "challenge": "transfection of constitutively active membrane-tethered Notch lacking the extracellular domain, read 24 h later", "read-out": "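Firefly luciferase from an E(spl)m3 reporter with active Notch, plus control-promoter and uninduced reporter wells for normalisation; unnormalised counts, duplicate wells a and b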", "scale": "induced reporter light, run 1, well a and induced reporter light, run 1, well b: higher = more light from the Notch target reporter with active Notch; control promoter light, run 1, well a and control promoter light, run 1, well b: higher = more light from the viral control promoter (cell number, transfection, viability); uninduced reporter light, run 1, well a: higher = more light from the Notch target reporter without active Notch", "hit rule": "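Wells with low control signal or poorly matching duplicates excluded; duplicates averaged; per source plate, z beyond ±2 for induced/control log2 ratio or beyond ±1.8 for induced/uninduced marks a hit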", "meaning of the calls": "active = modifier hit (raised or lowered Notch signal); inactive = not a hit", "note": "In all, the deposit lists about 22,000 reagents; below is an unselected part of those that have a named target and a result. In the full data, 403 (1.9%) were called active. 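Unnormalised raw counts per well; ratio z-scores behind the hit calls and whether each hit raises or lowers signal are not deposited.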 A number with no mark means an inactive call. Reagents against one gene are numbered here. A plus sign joins genes that one reagent is predicted to hit. Not given: the amount of reagent."}
The first 2 entries as a preview:
{"gene":"obst-B (GeneID 34336)","reagent":1,"induced reporter light, run 1, well a":2.25e5,"induced reporter light, run 1, well b":1.92e5,"control promoter light, run 1, well a":1.93e5,"control promoter light, run 1, well b":1.95e5,"uninduced reporter light, run 1, well a":17320}
{"gene":"CG12863 (GeneID 36623)","reagent":1,"induced reporter light, run 1, well a":94580,"induced reporter light, run 1, well b":93990,"control promoter light, run 1, well a":1.31e5,"control promoter light, run 1, well b":99500,"uninduced reporter light, run 1, well a":8720}

The listing, repeating the preview:
{"gene":"obst-B (GeneID 34336)","reagent":1,"induced reporter light, run 1, well a":2.25e5,"induced reporter light, run 1, well b":1.92e5,"control promoter light, run 1, well a":1.93e5,"control promoter light, run 1, well b":1.95e5,"uninduced reporter light, run 1, well a":17320}
{"gene":"CG12863 (GeneID 36623)","reagent":1,"induced reporter light, run 1, well a":94580,"induced reporter light, run 1, well b":93990,"control promoter light, run 1, well a":1.31e5,"control promoter light, run 1, well b":99500,"uninduced reporter light, run 1, well a":8720}
{"gene":"CG15452 (GeneID 33061)","reagent":1,"induced reporter light, run 1, well a":79630,"induced reporter light, run 1, well b":1.11e5,"control promoter light, run 1, well a":1.28e5,"control promoter light, run 1, well b":1.34e5,"uninduced reporter light, run 1, well a":12050}
{"gene":"CG14621 (GeneID 33128)","reagent":1,"induced reporter light, run 1, well a":79050,"induced reporter light, run 1, well b":90190,"control promoter light, run 1, well a":93340,"control promoter light, run 1, well b":96705,"uninduced reporter light, run 1, well a":10675}
{"gene":"CG6071 (GeneID 39308)","reagent":1,"induced reporter light, run 1, well a":1.42e5,"induced reporter light, run 1, well b":1.20e5,"control promoter light, run 1, well a":1.49e5,"control promoter light, run 1, well b":1.28e5,"uninduced reporter light, run 1, well a":6882}
{"gene":"CG34006 (retired record) (GeneID 3885652)","reagent":1,"induced reporter light, run 1, well a":2.03e5,"induced reporter light, run 1, well b":1.90e5,"control promoter light, run 1, well a":2.12e5,"control promoter light, run 1, well b":2.41e5,"uninduced reporter light, run 1, well a":15315}
{"gene":"CG8837 (GeneID 33545)","reagent":1,"induced reporter light, run 1, well a":2.07e5,"induced reporter light, run 1, well b":1.63e5,"control promoter light, run 1, well a":2.19e5,"control promoter light, run 1, well b":2.12e5,"uninduced reporter light, run 1, well a":11925}
{"gene":"CG12128 + CG1407","reagent":1,"induced reporter light, run 1, well a":1.06e5,"induced reporter light, run 1, well b":93555,"control promoter light, run 1, well a":1.10e5,"control promoter light, run 1, well b":1.08e5,"uninduced reporter light, run 1, well a":10260}
{"gene":"bumpel (GeneID 41368)","reagent":1,"induced reporter light, run 1, well a":1.47e5,"induced reporter light, run 1, well b":1.66e5,"control promoter light, run 1, well a":1.45e5,"control promoter light, run 1, well b":1.01e5,"uninduced reporter light, run 1, well a":8240}
{"gene":"CG4956 (GeneID 43114)","reagent":1,"induced reporter light, run 1, well a":1.62e5,"induced reporter light, run 1, well b":1.73e5,"control promoter light, run 1, well a":1.66e5,"control promoter light, run 1, well b":2.09e5,"uninduced reporter light, run 1, well a":13938}
{"gene":"Rgk1 (retired record) (GeneID 37219)","reagent":1,"induced reporter light, run 1, well a":1.15e5,"induced reporter light, run 1, well b":82695,"control promoter light, run 1, well a":1.09e5,"control promoter light, run 1, well b":1.14e5,"uninduced reporter light, run 1, well a":8530}
{"gene":"Rgk1 (retired record) (GeneID 37219)","reagent":2,"induced reporter light, run 1, well a":4650,"induced reporter light, run 1, well b":4985,"control promoter light, run 1, well a":5255,"control promoter light, run 1, well b":5365,"uninduced reporter light, run 1, well a":2845}
